According to paper PMC10132618:
No constants are given. Whether binding was seen depends on the method and setting. Binding seen in cells or lysates may run through a third protein. Some entries that bind do so weakly or less than the wild type. Where a sequence is shown, tags or fusion partners need not be part of it.

Amino acid sequences for entries named in this document (tags omitted).
UniProt P11746: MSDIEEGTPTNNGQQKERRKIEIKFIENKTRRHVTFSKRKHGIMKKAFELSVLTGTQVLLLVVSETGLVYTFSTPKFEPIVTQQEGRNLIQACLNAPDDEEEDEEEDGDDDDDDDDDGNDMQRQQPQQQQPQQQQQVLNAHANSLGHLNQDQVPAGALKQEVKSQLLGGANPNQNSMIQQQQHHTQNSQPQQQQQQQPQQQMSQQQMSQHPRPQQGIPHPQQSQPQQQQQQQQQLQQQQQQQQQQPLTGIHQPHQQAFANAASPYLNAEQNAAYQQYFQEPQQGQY

Target: T1, Csm1-flag (S. cerevisiae) (UniProt P25651)
T1 sequence: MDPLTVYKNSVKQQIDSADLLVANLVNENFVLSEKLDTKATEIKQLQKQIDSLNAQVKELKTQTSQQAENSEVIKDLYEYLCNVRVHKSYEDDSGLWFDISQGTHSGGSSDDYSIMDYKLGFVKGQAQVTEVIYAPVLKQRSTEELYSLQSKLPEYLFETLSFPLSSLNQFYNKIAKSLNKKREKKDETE
Test: co-IP; yeast cell lysate; Mcm1-myc and Csm1-flag, immunoblot; loaded inputs are 5% of the lysate used for the IP

binding: binds
Substance: Mcm1-myc (from UniProt P11746 1-286)
